Reference: paper PMC5414353
These are yes or no findings as the source states them, for the method shown. Binding seen in cells or lysates may run through a third protein. Some binding calls cover weakened binding; strength is not graded here.

By UniProt entry, the sequences of proteins in these tests, tags left out. Residues count along the entry.
UniProt P25799, residues 1-431: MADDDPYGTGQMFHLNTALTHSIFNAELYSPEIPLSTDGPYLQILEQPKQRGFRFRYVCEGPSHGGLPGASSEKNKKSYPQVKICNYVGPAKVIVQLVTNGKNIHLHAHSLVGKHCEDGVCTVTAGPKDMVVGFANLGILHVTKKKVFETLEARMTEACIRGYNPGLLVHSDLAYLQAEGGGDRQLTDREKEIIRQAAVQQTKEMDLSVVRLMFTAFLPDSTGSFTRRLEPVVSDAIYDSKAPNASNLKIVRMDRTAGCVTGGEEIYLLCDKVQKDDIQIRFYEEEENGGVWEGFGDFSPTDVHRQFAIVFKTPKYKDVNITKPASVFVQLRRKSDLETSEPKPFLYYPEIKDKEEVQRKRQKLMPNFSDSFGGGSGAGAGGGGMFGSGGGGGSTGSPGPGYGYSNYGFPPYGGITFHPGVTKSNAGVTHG

Molecular target: T1, Bcl-3 (endogenous, Treg cells) (mouse (endogenous in Tregs)) (UniProt Q9Z2F6)
T1 sequence: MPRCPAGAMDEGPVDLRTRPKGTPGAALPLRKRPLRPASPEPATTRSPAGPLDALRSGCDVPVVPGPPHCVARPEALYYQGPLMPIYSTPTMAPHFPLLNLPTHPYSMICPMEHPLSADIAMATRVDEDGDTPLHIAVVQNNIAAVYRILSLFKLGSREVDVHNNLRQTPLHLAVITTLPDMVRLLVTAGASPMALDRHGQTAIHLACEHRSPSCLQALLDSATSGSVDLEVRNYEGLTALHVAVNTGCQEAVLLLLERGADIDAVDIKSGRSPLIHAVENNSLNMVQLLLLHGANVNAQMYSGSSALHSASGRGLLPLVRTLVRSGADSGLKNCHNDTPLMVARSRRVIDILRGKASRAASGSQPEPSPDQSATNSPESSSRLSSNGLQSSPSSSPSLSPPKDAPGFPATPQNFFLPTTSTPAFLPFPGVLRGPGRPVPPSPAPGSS
Assay: co-IP; immunoprecipitation with Bcl-3 antibodies (sc-185, on Protein G Dynabeads) from protein extracts of in vitro differentiated wt Tregs restimulated with PMA/Ionomycin for 4 h; lysis buffer 20 mM Tris/HCl pH 7.5, 0.25% NP40, 150 mM NaCl, 1.5 mM MgCl2, 1 mM DTT; 4 h; immunoblot with antibodies against Bcl-3 or p50

binding: binds
Substance: NF-κB p50 (endogenous, Treg cells) (from UniProt P25799 1-431)
